According to paper PMC7018513:
Results are given in words; binding and its absence hold for the method and conditions named. Binding calls can cover weak binding; strength is not graded here. For some assays here: Sequences can lack the tags named with a protein. For some assays here: In cells and extracts the contact can be indirect. Values belong to the molecule of their own block, whether it stands above or below them.

Protein sequences, listed by entry. Tags and fused reporters are not part of them. Lines headed by an entry give the natural chain unless they say otherwise; changes in a name come on top.
UniProt F1MB52: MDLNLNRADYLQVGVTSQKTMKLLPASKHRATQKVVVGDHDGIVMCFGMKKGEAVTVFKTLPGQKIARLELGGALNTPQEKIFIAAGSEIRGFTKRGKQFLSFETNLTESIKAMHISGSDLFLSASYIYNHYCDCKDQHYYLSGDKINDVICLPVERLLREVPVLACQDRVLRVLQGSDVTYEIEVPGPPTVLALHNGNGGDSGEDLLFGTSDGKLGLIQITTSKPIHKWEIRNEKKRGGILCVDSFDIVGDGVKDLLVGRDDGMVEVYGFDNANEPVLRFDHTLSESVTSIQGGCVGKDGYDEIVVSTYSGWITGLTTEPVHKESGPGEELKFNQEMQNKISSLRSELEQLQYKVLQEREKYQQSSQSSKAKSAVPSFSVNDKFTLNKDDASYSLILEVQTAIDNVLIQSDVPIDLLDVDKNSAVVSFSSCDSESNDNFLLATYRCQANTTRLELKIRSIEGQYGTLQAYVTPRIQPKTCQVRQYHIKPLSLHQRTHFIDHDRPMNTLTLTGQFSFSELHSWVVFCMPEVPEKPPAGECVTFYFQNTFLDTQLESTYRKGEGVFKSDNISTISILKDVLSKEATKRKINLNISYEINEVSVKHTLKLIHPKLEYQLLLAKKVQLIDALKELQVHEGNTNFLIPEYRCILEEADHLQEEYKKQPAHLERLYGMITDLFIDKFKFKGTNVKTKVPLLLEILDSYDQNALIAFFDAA
UniProt Q32L13: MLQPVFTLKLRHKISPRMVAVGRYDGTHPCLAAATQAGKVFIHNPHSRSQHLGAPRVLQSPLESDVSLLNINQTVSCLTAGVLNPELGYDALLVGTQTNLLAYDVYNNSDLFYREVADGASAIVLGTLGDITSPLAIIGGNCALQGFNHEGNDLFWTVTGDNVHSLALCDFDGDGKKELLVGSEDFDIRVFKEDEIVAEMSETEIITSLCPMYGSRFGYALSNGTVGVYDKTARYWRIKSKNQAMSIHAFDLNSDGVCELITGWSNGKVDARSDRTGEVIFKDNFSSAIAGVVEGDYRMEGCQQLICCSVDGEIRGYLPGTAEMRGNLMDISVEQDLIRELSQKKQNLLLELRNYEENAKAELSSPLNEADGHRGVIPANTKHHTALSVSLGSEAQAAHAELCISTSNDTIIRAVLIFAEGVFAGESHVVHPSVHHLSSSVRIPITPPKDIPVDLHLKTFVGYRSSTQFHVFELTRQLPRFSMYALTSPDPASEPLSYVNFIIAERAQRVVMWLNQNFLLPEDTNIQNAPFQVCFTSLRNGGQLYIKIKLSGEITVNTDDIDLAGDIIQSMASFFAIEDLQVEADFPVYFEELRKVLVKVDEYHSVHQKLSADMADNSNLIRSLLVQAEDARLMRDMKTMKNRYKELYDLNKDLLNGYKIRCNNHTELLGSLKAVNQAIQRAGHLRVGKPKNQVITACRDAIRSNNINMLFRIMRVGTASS

Experiments:
[1] = target: T1, BBS4 (Bos taurus (endogenous in bovine retina)) (UniProt Q1JQ97); assay: cryo-EM structure; BBSome-only class (no ARL6), 3.1 Å; the sample was 0.7 mg/ml BBSome mixed with 2x molar excess of ARL6 and 1 mM GTP; classes separated by focused classification; both purified
T1 sequence: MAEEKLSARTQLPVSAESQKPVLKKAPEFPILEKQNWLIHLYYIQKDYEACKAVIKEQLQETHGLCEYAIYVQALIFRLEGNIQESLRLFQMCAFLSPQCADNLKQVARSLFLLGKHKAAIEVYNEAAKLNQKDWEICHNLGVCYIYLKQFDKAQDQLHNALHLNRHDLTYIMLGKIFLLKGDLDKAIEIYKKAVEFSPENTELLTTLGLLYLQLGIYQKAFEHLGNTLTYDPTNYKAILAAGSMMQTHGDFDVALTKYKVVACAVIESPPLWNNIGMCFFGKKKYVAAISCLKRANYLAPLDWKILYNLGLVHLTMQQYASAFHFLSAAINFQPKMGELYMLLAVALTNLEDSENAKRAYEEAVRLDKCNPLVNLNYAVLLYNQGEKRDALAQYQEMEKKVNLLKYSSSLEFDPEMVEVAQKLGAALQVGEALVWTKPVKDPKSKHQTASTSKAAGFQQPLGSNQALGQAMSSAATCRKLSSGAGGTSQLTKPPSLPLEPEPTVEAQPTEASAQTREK

[2] = target: BBS7 (Bos taurus (endogenous in bovine retina)) (UniProt F1MB52); assay: as above
[3] = target: T2, Flag-∆16NARL6(Q73L) (Bos taurus) (UniProt Q0IIM2); assay: pull-down; ARL6:GTP held on anti-Flag M2 affinity resin; clarified bovine retinal lysate with 100 μM GTP loaded, 1 hr at 4°C; 40 mM Tris pH 8.0, 150 mM NaCl, 250 mM sucrose, 5 mM MgCl2, 4 mM β-mercaptoethanol; eluted with Flag peptide; only the target purified
T2 sequence: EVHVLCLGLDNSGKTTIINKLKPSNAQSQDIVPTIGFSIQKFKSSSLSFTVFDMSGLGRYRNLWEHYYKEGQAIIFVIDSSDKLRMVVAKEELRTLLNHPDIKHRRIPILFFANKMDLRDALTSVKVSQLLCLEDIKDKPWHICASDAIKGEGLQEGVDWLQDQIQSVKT

[4] = target: BBS7 (Bos taurus (endogenous in bovine retina)) (UniProt F1MB52); assay: cryo-EM structure; BBSome:ARL6:GTP class, 3.5 Å; 0.7 mg/ml BBSome (~18 μM) mixed with 2x molar excess of ARL6 (36 μM) and 1 mM GTP, 1 hr at 4°C; both purified
[5] = target: native bovine BBSome (Bos taurus (endogenous in bovine retina)); assay: as above
[6] = target: BBS9 (Bos taurus (endogenous in bovine retina)); assay: cryo-EM structure; BBSome-only class (no ARL6), 3.1 Å; the sample was 0.7 mg/ml BBSome mixed with 2x molar excess of ARL6 and 1 mM GTP; classes separated by focused classification; both purified
[7] = target: BBS2 (Bos taurus (endogenous in bovine retina)) (UniProt Q32L13); assay: as above
[8] = target: BBS7 (Bos taurus (endogenous in bovine retina)) (UniProt F1MB52); assay: as above; remark: listed apart in the source
[9] = target: BBS8 (Bos taurus (endogenous in bovine retina)); assay: as above

- binding [1]: binds
Molecule: BBS8 (Bos taurus (endogenous in bovine retina))

- binding [2]: binds
Molecule: BBS2 (from UniProt Q32L13)

- binding [3]: binds
Molecule: native bovine BBSome (Bos taurus (endogenous in bovine retina)) (complex)

- binding [4]: binds
- binding [5]: binds
B1: Flag-∆16NARL6(Q73L) (enzyme, UniProt Q0IIM2 17-186)
chain: EVHVLCLGLDNSGKTTIINKLKPSNAQSQDIVPTIGFSIQKFKSSSLSFTVFDMSGLGRYRNLWEHYYKEGQAIIFVIDSSDKLRMVVAKEELRTLLNHPDIKHRRIPILFFANKMDLRDALTSVKVSQLLCLEDIKDKPWHICASDAIKGEGLQEGVDWLQDQIQSVKT

- binding [6]: binds
B2: BBS4 (protein, UniProt Q1JQ97 1-519)
chain: MAEEKLSARTQLPVSAESQKPVLKKAPEFPILEKQNWLIHLYYIQKDYEACKAVIKEQLQETHGLCEYAIYVQALIFRLEGNIQESLRLFQMCAFLSPQCADNLKQVARSLFLLGKHKAAIEVYNEAAKLNQKDWEICHNLGVCYIYLKQFDKAQDQLHNALHLNRHDLTYIMLGKIFLLKGDLDKAIEIYKKAVEFSPENTELLTTLGLLYLQLGIYQKAFEHLGNTLTYDPTNYKAILAAGSMMQTHGDFDVALTKYKVVACAVIESPPLWNNIGMCFFGKKKYVAAISCLKRANYLAPLDWKILYNLGLVHLTMQQYASAFHFLSAAINFQPKMGELYMLLAVALTNLEDSENAKRAYEEAVRLDKCNPLVNLNYAVLLYNQGEKRDALAQYQEMEKKVNLLKYSSSLEFDPEMVEVAQKLGAALQVGEALVWTKPVKDPKSKHQTASTSKAAGFQQPLGSNQALGQAMSSAATCRKLSSGAGGTSQLTKPPSLPLEPEPTVEAQPTEASAQTREK

- binding [7]: binds
- binding [8]: binds
- binding [6]: binds
B3: BBS1 (protein, UniProt A0AAA9RX20 1-668)
chain: MGRIRDKLYKSERGIASQLVETPARTSATCSGASLSRAGKLSARNLDTRASPQPGSFWALRGGWPQPVARVTPGKMAATSSSDSDGGKGESSEANSKWLDSLSDSMANIHTFSACLALADFHGDGEYKLAMGDLGPDGRQPRLKVLKGHTLVSQKPLPDLPAAAVTFLMASHEPRTPALAIASGPCVYVYKNLKPYFKFSLPSLPTNPLEQDLWNQAKEDQIDPLTLKEMLEGIREKAEVPLSVQSLRFLPLELSEMEAFVNQHKSKSIRRQTVITTMTTLKKNLADEDAVSCLVLGTENKELLVLDPEAFTILAKMSLPSVPAFLEASGQFDVEFRLAAACRNGSIYILRRDSKRPKYCIELGAQPVGLVGVHKVLVVGSNQDSLHGFTYKGKRLWTVQMPAAILAMNLLEQHSRGLQAVMAALANEEVRIYHDKVLLNVIRTPEAVTSLCFGRYGREDNTLIMTTLGGGLIIKILKRTAVFAEGGGEAGPPPSQAIKLNVPRKTRLYVDQTLREREAGTAMHRTFQADLYLLRLRAARAYVQALESSLSPVSLTAREPLKLHAVVQGLGPTFKLTLHLQNTSTARPILGLVVCFLYNEVLYALPRAFFKVPLLVPGLNYPLETFVKSLSDKGISDIIKVLVLREGQSTPLLSAHINMPMSEGLAAD

- binding [9]: binds
- binding [6]: binds
B4: BBS18 (protein, UniProt G3N2W1 1-69)
chain: MAETKSMFREVLPKQGQLYVEDITTMVLCKPKLLPLKSLTLEKLEKMQQAAQDTIHQQEMTEKEQKITH
